Positions count from the first letter of the chain named. These are yes or no findings as the source states them, for the method shown. Some results given as binding are weak or reduced against the parent protein; the word gives no strength.
B1: VH1 + VL1 (antibody, V domains shown)
VH: QVQLVQSGAEVKKPGASVKVSCKASGYTFTSYYIHWVRQAPGQRLEWIGWIYPGNVNTKYNEKFKGRVTITADTSASTAYMELSSLRSEDTAVYYCARCWGYYYGSSYAMDYWGQGTLVTVSS
VL: EIVLTQSPDFQSVTPKEKVTITCRASQSIGTSIHWYQQKPDQSPKLLIKYASESISGVPSRFSGSGSGTDFTLTINSLEAEDAATYYCQQSNSWPTYTFGGGTKLEIK
B2: VH1 + VL2 (antibody, V domains shown)
VH: B1 VH
VL: B1 VL with K45R, T85D
B3: VH3 + VL3 (antibody, V domains shown)
VH: B1 VH with R44G, V68A, Y95F
VL: B1 VL with I21F, K45R, V58I, T85D
B4: VH3 + VL1 (antibody, V domains shown)
VH: B1 VH with R44G, V68A, Y95F
VL: B1 VL
B5: VH1 + VL3 (antibody, V domains shown)
VH: B1 VH
VL: B1 VL with I21F, K45R, V58I, T85D
B6: VH2 + VL3 (antibody, V domains shown)
VH: B1 VH with V68A, Y95F
VL: B1 VL with I21F, K45R, V58I, T85D
B7: VH3 + VL2 (antibody, V domains shown)
VH: B1 VH with R44G, V68A, Y95F
VL: B1 VL with K45R, T85D
B8: VH2 + VL1 (antibody, V domains shown)
VH: B1 VH with V68A, Y95F
VL: B1 VL
B9: VH2 + VL2 (antibody, V domains shown)
VH: B1 VH with V68A, Y95F
VL: B1 VL with K45R, T85D

Protein sequences, listed by entry. Tags and fused reporters are not part of them. Residues count along the entry.
UniProt P48061, residues 22-89: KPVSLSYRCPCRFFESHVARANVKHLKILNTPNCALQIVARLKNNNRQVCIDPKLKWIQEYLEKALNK

The binders below were run against antigen (SDF-1a) (UniProt P48061) (assay: ELISA, antibody coated (from 100 ug/ml, 1/3 serial dilution), SDF-1a at 2 ug/ml, His-[HRP] detection, OD450).

| binding | Binder |
| --- | --- |
| binds | B1 |
| binds | B2 |
| binds | B3 |
| binds | B4 |
| binds | B5 |
| binds | B6 |
| binds | B7 |
| binds | B8 |
| binds | B9 |
